Our source for the binding values is publication doi:10.1101/2020.11.06.372292.

Chains of the proteins cited; added tags and fusions are not shown. Residues count along the entry.
UniProt P35951, residues 22-862: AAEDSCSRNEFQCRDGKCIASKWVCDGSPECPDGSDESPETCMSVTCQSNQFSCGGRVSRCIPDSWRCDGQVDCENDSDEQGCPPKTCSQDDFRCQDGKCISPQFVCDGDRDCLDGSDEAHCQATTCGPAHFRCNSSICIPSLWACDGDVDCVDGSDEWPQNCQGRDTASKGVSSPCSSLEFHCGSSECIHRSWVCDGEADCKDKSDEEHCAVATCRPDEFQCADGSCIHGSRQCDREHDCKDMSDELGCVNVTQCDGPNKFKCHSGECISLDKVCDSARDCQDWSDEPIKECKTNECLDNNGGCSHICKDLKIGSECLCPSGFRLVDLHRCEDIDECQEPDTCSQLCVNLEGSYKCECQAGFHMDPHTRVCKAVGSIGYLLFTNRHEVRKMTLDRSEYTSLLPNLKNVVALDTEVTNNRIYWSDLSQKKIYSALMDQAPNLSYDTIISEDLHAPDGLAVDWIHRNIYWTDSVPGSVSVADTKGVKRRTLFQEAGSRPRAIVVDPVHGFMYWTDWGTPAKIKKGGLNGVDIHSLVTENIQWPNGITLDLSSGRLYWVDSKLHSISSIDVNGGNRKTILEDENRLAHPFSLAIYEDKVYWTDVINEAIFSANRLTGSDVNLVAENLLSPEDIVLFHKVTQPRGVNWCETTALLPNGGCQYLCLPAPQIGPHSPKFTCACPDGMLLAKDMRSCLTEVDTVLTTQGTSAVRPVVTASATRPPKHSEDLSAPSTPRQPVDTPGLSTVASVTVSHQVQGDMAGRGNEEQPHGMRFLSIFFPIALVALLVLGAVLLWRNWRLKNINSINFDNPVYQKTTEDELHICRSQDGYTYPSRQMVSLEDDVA

These are yes or no findings as the source states them, for the method shown. Binding seen in cells or lysates may run through a third protein. Some binding calls cover weakened binding; strength is not graded here.

For the assay, the target named is T1, βPix, endogenous in mouse kidney (mouse (endogenous in kidney tissue)) (UniProt Q9ES28).
T1 sequence: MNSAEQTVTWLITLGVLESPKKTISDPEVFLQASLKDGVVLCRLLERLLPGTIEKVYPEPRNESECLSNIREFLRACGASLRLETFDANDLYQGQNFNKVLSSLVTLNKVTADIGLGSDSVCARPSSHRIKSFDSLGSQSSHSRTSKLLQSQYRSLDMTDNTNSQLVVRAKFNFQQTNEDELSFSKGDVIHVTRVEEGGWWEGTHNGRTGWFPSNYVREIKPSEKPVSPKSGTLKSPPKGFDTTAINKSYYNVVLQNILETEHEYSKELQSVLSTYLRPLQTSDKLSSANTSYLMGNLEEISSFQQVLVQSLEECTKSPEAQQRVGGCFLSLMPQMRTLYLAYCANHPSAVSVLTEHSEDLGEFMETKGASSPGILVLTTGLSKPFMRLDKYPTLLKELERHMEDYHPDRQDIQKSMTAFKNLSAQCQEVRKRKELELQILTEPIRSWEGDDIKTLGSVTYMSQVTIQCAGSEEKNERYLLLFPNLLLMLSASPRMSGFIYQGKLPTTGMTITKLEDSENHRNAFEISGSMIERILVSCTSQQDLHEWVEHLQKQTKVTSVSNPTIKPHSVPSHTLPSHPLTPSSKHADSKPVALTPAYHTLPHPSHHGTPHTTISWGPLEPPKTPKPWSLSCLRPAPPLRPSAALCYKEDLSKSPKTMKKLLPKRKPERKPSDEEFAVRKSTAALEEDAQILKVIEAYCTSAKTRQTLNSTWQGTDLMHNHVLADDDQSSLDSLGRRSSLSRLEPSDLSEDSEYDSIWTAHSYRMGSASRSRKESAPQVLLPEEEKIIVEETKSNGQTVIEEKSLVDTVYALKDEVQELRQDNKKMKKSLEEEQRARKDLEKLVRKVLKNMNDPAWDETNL
Briefly: co-IP.

With “low density lipoprotein receptor (LDLR), endogenous in mouse kidney (from UniProt P35951 22-862)”, the binding result is “binds”.
